No constants are given. Whether binding was seen depends on the method and setting. Binding seen in cells or lysates may run through a third protein. Some binding calls cover weakened binding; strength is not graded here.
Biological target: PRPF8 (mouse (endogenous in testis)) (UniProt Q99PV0)
Test: co-IP; PRPF8 antibody immunoprecipitation from sorted germ cells of control mice (for SLU7 also of Cwf19l2-SKO mice), immunoblotting; IgG as negative control

B1: SLU7 (protein, UniProt Q8BHJ9 1-585)
chain: MSAAAVDPVSATPMTGSKEMSLEEPKKMTREDWRKKKELEEQRKLGNAPAEVDEEGKDINPHIPQYISSVPWYIDPSKRPTLKHQRPQPEKQKQFSSSGEWYKRGVKENSITTKYRKGACENCGAMTHKRKDCFERPRRVGAKFTGTNIAPDEHVQPQLMFDYDGKRDRWNGYNPEEHMKIVEEYAKVDLAKRTLKAQKLQEELASGKLVEQANSPKHQWGEEEPNSQMEKDHNSEDEDEDKYADDIDMPGQNFDSKRRITVRNLRIREDIAKYLRNLDPNSAYYDPKTRAMRENPYANAGKNPDEVSYAGDNFVRYTGDTISMAQTQLFAWEAYDKGSEVHLQADPTKLELLYKSFKVKKEDFKEQQKESILEKYGGQEHLDAPPAELLLAQTEDYVEYSRHGTVIKGQERAVACSKYEEDVKINNHTHIWGSYWKEGRWGYKCCHSFFKYSYCTGEAGKESVNSEECIITGATAEESVKKPQALLELHQEKLKEEKKKKKKKKKHRKSSSDSDDEERKQEKLKKALNAEEARLLHVKEIMQIDERKRPYNSIYETREPTEEEMEAYRMKRQRPDDPMASFLGQ
binding: binds

Source: article PMC11336944
